These are yes or no findings as the source states them, for the method shown. Binding calls can cover weak binding; strength is not graded here. Tags and fused reporters may be left off the sequences shown.
Biological target: AR_(ΔNTD), recombinant mouse AR lacking the N-terminal domain (mouse)
Test: mass photometry; Refeyn TwoMP; proteins at 5 uM incubated on ice for 30 min in DNA binding buffer in the presence or absence of ARE DNA, flash diluted into PBS to 10 nM; both purified

B1: Smt3-tagged full-length human PTGES3 (protein, UniProt Q15185 1-160)
chain: MQPASAKWYDRRDYVFIEFCVEDSKDVNVNFEKSKLTFSCLGGSDNFKHLNEIDLFHCIDPNDSKHKRTDRSILCCLRKGESGQSWPRLTKERAKLNWLSVDFNNWKDWEDDSDEDMSNFDRFSEMMNNMGGDEDVDLPEVDGADDDSQDSDDEKMPDLE
- binding: binds

From article PMC12695660, “Genome-scale CRISPR screens identify PTGES3 as a direct modulator of androgen receptor function in advanced prostate cancer”
